From patent US10610521B2, “Biomarkers for response to rapamycin analogs” (MEMORIAL SLOAN-KETTERING CANCER CENTER, priority 2013, dated 2020)
Entries after “also recorded” stand apart in the source; their conditions may differ. For at least one compound, name, drawing or mass did not settle the structure.

System: mTORC1 (mTOR Q2223K mutant vs wild-type mTOR)
Test: S6K (T389) phosphorylation immunoblot in HEK293T cells transfected with Flag-mTOR wild-type or Q2223K
Format: cell-based, human

## CO[C@H]1C[C@@H]2CC[C@@H](C)[C@@](O)(O2)C(=O)C(=O)N2CCCC[C@H]2C(=O)O[C@H]([C@H](C)C[C@@H]2CC[C@@H](O)[C@H](OC)C2)CC(=O)[C@H](C)/C=C(\C)[C@@H](O)[C@@H](OC)C(=O)[C@H](C)C[C@H](C)/C=C/C=C/C=C/1C [rapamycin]
HEK293T co-transfected with Myc-tagged S6K
  sensitivity of mTOR (Q2223K) to rapamycin, exogenous S6K co-transfected: affirmed its sensitivity to rapamycin
HEK293T, 10% serum, indicated concentrations (nM) of rapamycin in final hour, compared with wild-type mTOR
  sensitivity of mTOR (Q2223K) to rapamycin, phosphorylation of S6K (T389): sensitive to rapamycin as wildtype mTOR; also recorded: as sensitive as wild-type mTORC1 to rapamycin
